Data as given in PubChem BioAssay AID1259424 (University of Nebraska Medical Center, 2018).
Shown is one part, drawn at random, of about 14,000 reagents. 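Higher correlation or smaller distance means closer resemblance to KSR1 loss; control wells, including KSR1 knockdowns, recur on many plates.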 Further read-outs or replicates are left out here. Not given: the time to read-out.

Aim: 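Seek colon cancer survival genes behaving like KSR1, using a six-gene signature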 (primary screen)
Cells: human HCT116 colon cancer cells
Knock-down reagent: siRNA pool against human genes, 50 nM
Measurement: 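Six signature mRNAs by branched-DNA multiplex assay, scaled to two housekeeping genes and non-targeting median, log2; matched to mean KSR1 knockdown profile by Pearson correlation and euclidean distance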
Direction: mean correlation with KSR1 profile: higher = expression change more like KSR1 knockdown

For PGLYRP1 (GeneID 8993), what does the deposit list?
mean correlation with KSR1 profile: -0.663

For CYP8B1 (GeneID 1582), what does the deposit list?
mean correlation with KSR1 profile: -0.16

With SNX16 (GeneID 64089), what was measured?
mean correlation with KSR1 profile: -0.681

What did the screen give for PLSCR1 (GeneID 5359)?
mean correlation with KSR1 profile: -0.142

How did the screen score SLF1 (GeneID 84250)?
mean correlation with KSR1 profile: -0.0079

What is on record for MRPL30 (GeneID 51263)?
mean correlation with KSR1 profile: -0.174

For MYH2 (GeneID 4620), what was measured?
mean correlation with KSR1 profile: -0.19

Look-ups from the list.
Result for MYH2 (GeneID 4620) in “mean correlation with KSR1 profile”: -0.19
Under “mean correlation with KSR1 profile”, PLSCR1 (GeneID 5359) is entered as -0.142

Next reagents follow:
For NUP93 (GeneID 9688), how do the results read?
mean correlation with KSR1 profile: 0.239

What did the screen give for ABCB6 (GeneID 10058)?
mean correlation with KSR1 profile: -0.136

Which result is listed for RHOH (GeneID 399)?
mean correlation with KSR1 profile: 0.798

With C3orf52 (GeneID 79669), how do the results read?
mean correlation with KSR1 profile: 0.39

What did the screen give for PIGZ (GeneID 80235)?
mean correlation with KSR1 profile: -0.174
